The target of this assay is FLAG- and V5-tagged Argonaute2 protein (FLAG-V5-Ago2) (UniProt Q9UKV8). The assay can be described thus: co-IP; Ago-Tag IP: S1 supernatant of Tagger mouse brain homogenate in Polysome Buffer (50 mM Tris pH 7.5, 100 mM KCl, 12 mM MgCl2, 1% Nonidet P-40) with anti-FLAG M2 magnetic beads, 4°C; washes in High Salt and Extra High Salt Buffer; immunoblot. Background: A western blot detects proteins with antibodies after separation by electrophoresis.

Sequences of proteins named here, by UniProt entry; tags and fusion partners are left off.
UniProt Q8R418: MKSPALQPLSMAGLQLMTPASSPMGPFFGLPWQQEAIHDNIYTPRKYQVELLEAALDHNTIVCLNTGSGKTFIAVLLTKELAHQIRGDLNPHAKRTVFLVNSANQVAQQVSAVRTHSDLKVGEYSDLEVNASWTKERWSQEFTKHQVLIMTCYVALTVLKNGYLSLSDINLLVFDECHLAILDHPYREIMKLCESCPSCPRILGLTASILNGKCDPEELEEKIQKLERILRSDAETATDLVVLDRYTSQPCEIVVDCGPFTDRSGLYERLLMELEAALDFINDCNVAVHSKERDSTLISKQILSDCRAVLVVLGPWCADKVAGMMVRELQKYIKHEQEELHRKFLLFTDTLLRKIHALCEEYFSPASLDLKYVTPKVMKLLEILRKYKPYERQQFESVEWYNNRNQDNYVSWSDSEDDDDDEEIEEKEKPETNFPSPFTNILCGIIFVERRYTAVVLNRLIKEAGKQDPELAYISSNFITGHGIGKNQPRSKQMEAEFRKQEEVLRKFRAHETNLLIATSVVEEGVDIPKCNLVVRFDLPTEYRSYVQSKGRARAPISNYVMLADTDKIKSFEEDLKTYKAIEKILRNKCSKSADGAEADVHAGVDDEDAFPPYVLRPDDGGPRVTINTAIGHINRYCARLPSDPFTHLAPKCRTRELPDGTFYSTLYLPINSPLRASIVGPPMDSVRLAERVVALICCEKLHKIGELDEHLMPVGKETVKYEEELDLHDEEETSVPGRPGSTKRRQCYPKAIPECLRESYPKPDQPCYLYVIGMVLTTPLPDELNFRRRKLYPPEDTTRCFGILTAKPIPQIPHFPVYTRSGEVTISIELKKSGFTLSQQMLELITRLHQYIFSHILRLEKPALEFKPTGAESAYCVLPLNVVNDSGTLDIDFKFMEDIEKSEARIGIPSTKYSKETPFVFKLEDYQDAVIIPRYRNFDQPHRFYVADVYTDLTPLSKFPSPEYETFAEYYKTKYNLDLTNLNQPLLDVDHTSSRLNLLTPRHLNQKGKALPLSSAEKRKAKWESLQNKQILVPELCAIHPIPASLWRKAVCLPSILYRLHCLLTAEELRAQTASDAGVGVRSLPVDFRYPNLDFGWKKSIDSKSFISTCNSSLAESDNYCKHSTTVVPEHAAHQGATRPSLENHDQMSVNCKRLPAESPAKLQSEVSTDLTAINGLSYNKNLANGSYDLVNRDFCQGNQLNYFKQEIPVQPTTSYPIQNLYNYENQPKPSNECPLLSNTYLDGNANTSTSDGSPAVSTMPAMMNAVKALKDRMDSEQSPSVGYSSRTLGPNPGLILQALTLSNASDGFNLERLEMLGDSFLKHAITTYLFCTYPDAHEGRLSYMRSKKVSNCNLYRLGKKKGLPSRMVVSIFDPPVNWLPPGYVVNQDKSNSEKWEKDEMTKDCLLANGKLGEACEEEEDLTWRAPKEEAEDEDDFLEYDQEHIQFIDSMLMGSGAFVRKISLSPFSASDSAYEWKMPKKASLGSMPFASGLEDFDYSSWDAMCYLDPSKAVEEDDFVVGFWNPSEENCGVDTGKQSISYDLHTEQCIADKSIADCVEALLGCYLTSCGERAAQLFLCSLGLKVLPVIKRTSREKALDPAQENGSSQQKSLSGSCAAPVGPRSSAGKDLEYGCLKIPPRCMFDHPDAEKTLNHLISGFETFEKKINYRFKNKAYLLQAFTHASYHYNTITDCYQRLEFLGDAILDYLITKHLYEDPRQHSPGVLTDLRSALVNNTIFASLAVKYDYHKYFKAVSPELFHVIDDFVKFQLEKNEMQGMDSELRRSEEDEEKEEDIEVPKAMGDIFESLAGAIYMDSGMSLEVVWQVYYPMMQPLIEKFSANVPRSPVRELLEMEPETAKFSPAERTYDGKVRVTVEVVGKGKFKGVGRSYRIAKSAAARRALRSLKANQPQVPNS

Results are given in words; binding and its absence hold for the method and conditions named. In cells and extracts the contact can be indirect. Some entries that bind do so weakly or less than the wild type.

Regarding “endogenous Argonaute 2 (Ago2) (from UniProt Q8CJG0 1-860)”, the binding result was “binds”. For Dicer (from UniProt Q8R418 1-1916) the value was “binds”.

For the origin of these results see publication PMC6701817.
